Some of the results follow. These are further read-outs of the screen, such as a control signal, another cell line or another target. No call is given for them. Most of these compounds were active or inconclusive in the main read-out, so they are no random draw. Potencies come from curve fits of mixed quality, noted in brackets.
Test: qHTS Assay for Lipid Storage Modulators in Drosophila S3 Cells;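 as to cell number change: cells counted by Cell Tracker Red CMTPX staining in the red channel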
Conditions: BODIPY lipid droplet fluorescence, 18-24 h; for cell number change: measured here: cell count max response, cells fed with added oleic acid
Outline: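 Laser-scanning cytometry quantifies lipid droplet accumulation (500–530 nm total intensity; droplet/cell object ratio) in oleic acid-fed (400 uM added) Drosophila S3 cells treated with a concentration series. 20 uM Triacsin C defined 100% inhibition.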

[1] = measured here: lipid fluorescence (Fed channel) AC50, cells fed with added oleic acid
[2] = measured here: cell number channel AC50, cells fed with added oleic acid

Compound	cell number change [%]	AC50 [1]	AC50 [2]
COc1ccc(N2CCN(C(=O)c3cn(C4CCCC4)c(=O)c4c3c3ccccc3n4C)CC2)cc1	-1.87	1.84 µM [rising, partial curve]	
CN1CCN(CC(=O)Nc2c(C(=O)C3CC3)oc3ccccc23)CC1	-1.96		
N#CCCn1c(SCC(=O)NCCc2ccc(F)cc2)nc2ccccc21	21	7.31 µM [rising, partial curve, poor fit]	6.51 µM [falling, single point]
CCCCn1c(N)c(N(CCOC)C(=O)c2c(-c3ccccc3)noc2C)c(=O)[nH]c1=O	-26.3	0.58 µM [falling, full curve]	
O=C(Nc1ccc2ccccc2c1)c1cc(F)c(F)cc1Cl	1.57	18.4 µM [falling, single point]	
Cc1cccc([C@@H]2[C@@H]3C(=O)N(Cc4ccccc4)C(=O)[C@@H]3[C@]3(C)C(=O)N(c4ccc(C(F)(F)F)cc4)C(=O)N23)c1	77.2		25.9 µM [rising, single point]
COC(=O)c1c(C(=O)OC)c(-c2ccc(OC)cc2)n2c1CCC2	15.7	4.61 µM [rising, full curve]	
Cc1ccc2[nH]cc(CCNC(=O)CN3C(=O)c4ccccc4C3=O)c2c1	36.4	1.46 µM [rising, partial curve]	6.51 µM [rising, partial curve, poor fit]
COC(=O)[C@@H](NC(=O)c1ccc2c(c1)S(=O)(=O)c1ccccc1C2=O)C(C)C	-5.46	29.1 µM [falling, single point]	
Cc1ccc(S(=O)(=O)n2nnc3ccccc32)c(C)c1C	22.7	0.00461 µM [rising, full curve]	
COc1cccc(Cn2c(-c3nonc3N)nc3ccccc32)c1		0.461 µM [rising, single point]	2.91 µM [rising, partial curve]
COc1ccc(N2CC(C(=O)NCCN3C(=O)S/C(=C\c4cccnc4)C3=O)CC2=O)c(OC)c1 (stereo not given)			0.651 µM [rising, full curve]
COC(=O)C1=C(N)c2c(F)cccc2C1(C#N)c1ccccc1 (stereo not given)	78.4	1.3 µM [falling, full curve, poor fit]	25.9 µM [rising, single point]
CCc1ccccc1NC(=O)C(Cc1cccc(OC)c1OC)c1nn[nH]n1 (stereo not given)	18.6	29.1 µM [falling, partial curve, poor fit]	
CC(C)OC(=O)CC1C(=O)NCCN1C(=S)NC(=O)c1ccccc1 (stereo not given)	14.3		

From PubChem BioAssay AID2685 (National Center for Advancing Translational Sciences (NCATS), 2010)
